The values below come from article PMC9252704.

The experiment addresses dynamin-related protein 1 (mouse (endogenous in BV2)) (UniProt Q8K1M6). The experiment can be described thus: co-IP; 0.5 mg BV2 microglia total cell lysate incubated with anti-CDK5 or anti-DRP1 antibody at 4°C overnight, Protein G-Sepharose 2 h, four washes with ice-cold PBS, Western blot; both directions (IP: DRP1, WB: CDK5; IP: CDK5, WB: DRP1); IgG control.

Results are given in words; binding and its absence hold for the method and conditions named. Binding seen in cells or lysates may run through a third protein. Some binding calls cover weakened binding; strength is not graded here.

Take “Cyclin-dependent kinase-5 (from UniProt P49615 1-292)”: the binding entry is “binds”.
